Test results from patent publication US20240168030A1, “DIRECT FLUORESCENT GLYCAN LABELING” (BIO-TECHNE CORPORATION, priority 2019, published 2024).
Some of these results come from one statement about several compounds together.

Tested on: asialofetuin
Assay: Asialofetuin labeling with variable amounts of ST3Gal1 or ST6Gal1 (FIG. 7)
Assay type: biochemical, bovine
Conditions: 5 μg asialofetuin, 0.2 nmol CMP-Cy5-SA, 30 μL

Row | Molecule | Optimal amount of enzyme for asialofetuin labeling
1 | α-2,3-sialyltransferase 1 (protein, UniProt Q11201 1-340, looked up, recombinant human sialyltransferase, Core-1 O-glycan specific) CMP-N-acetylneuraminate-beta-g …: MVTLRKRTLKVLTFLVLFIFLTSFFLNYSHTMVATTWFPKQMVLELSENLKRLIKHRPCTCTHCIGQRKLSAWFDERFNQTMQPLLTAQNALLEDDTYRWWLRLQREKKPNNLNDTIKELFRVVPGNVDPMLEKRSVGCRRCAVVGNSGNLRESSYGPEIDSHDFVLRMNKAPTAGFEADVGTKTTHHLVYPESFRELGDNVSMILVPFKTIDLEWVVSAITTGTISHTYIPVPAKIRVKQDKILIYHPAFIKYVFDNWLQGHGRYPSTGILSVIFSMHVCDEVDLYGFGADSKGNWHHYWENNPSAGAFRKTGVHDADFESNVTATLASINKIRIFKGR | below 1 μg
2 | α-2,6-sialyltransferase 1 (protein, UniProt P15907 1-406, looked up, recombinant human sialyltransferase, N-glycan specific) Beta-galactoside …: MIHTNLKKKFSCCVLVFLLFAVICVWKEKKKGSYYDSFKLQTKEFQVLKSLGKLAMGSDSQSVSSSSTQDPHRGRQTLGSLRGLAKAKPEASFQVWNKDSSSKNLIPRLQKIWKNYLSMNKYKVSYKGPGPGIKFSAEALRCHLRDHVNVSMVEVTDFPFNTSEWEGYLPKESIRTKAGPWGRCAVVSSAGSLKSSQLGREIDDHDAVLRFNGAPTANFQQDVGTKTTIRLMNSQLVTTEKRFLKDSLYNEGILIVWDPSVYHSDIPKWYQNPDYNFFNNYKTYRKLHPNQPFYILKPQMPWELWDILQEISPEEIQPNPPSSGMLGIIIMMTLCDQVDIYEFLPSKRKTDVCYYYQKFFDSACTMGAYHPLLYEKNLVKHLNQGTDEDIYLLGKATLPGFRTIHC | below 1 μg
